No constants are given. Whether binding was seen depends on the method and setting. Binding seen in cells or lysates may run through a third protein. These calls come from enrichment with a bait or labelling near it, and not all partners need be listed.
Target: Lamellipodin (human (endogenous in A172 and U343MG)) (UniProt Q70E73)
Experiment: affinity purification with mass spectrometry; endogenous Lpd immunoprecipitated (anti-Lamellipodin #91138, protein A/G Sepharose, overnight 4 °C) from 1000 µg A172 lysate in GST lysis buffer (50 mM Tris HCl, 200 mM NaCl, 1% NP-40, pH 7.4), unirradiated or 1 h after 6 Gy X-rays; rabbit IgG control; label-free quantification, Lpd/IgG ratio of at least two

By UniProt entry, the sequences of proteins in these tests, tags left out. Where a name states a change or a piece, a line headed by the entry shows the natural chain unless it says otherwise.
UniProt Q70E73: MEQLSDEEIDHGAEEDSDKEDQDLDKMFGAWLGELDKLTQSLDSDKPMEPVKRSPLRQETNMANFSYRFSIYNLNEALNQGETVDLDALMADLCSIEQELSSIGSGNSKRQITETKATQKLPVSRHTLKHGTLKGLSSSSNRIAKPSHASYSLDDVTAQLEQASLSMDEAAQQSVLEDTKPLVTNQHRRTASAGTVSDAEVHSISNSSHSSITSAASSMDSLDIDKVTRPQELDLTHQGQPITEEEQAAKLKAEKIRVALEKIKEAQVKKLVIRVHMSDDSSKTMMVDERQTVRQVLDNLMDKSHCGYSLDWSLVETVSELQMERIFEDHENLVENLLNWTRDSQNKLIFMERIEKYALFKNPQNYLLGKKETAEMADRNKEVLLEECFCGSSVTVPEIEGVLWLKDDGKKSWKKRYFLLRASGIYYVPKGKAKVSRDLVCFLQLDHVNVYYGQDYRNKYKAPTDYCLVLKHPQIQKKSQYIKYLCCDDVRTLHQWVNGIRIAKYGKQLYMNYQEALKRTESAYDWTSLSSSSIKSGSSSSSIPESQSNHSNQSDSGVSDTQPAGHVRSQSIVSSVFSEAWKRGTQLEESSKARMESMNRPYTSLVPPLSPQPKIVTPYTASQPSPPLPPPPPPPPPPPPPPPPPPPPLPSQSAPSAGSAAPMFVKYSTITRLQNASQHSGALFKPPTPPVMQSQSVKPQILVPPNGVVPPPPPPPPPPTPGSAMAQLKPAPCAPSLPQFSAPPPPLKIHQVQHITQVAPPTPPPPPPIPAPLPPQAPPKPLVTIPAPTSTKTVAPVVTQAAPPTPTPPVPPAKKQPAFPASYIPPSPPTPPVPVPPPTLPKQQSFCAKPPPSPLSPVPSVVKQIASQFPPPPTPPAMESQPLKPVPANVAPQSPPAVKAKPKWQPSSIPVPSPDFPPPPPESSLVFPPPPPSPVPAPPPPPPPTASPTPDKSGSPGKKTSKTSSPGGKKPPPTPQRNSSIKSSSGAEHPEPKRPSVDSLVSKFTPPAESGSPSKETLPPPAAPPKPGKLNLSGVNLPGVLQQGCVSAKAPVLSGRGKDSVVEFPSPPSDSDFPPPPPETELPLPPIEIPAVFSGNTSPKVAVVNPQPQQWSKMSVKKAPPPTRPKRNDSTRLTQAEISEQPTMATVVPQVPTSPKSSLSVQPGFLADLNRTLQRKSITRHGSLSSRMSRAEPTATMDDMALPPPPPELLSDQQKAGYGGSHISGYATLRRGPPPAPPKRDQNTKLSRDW
UniProt Q92747: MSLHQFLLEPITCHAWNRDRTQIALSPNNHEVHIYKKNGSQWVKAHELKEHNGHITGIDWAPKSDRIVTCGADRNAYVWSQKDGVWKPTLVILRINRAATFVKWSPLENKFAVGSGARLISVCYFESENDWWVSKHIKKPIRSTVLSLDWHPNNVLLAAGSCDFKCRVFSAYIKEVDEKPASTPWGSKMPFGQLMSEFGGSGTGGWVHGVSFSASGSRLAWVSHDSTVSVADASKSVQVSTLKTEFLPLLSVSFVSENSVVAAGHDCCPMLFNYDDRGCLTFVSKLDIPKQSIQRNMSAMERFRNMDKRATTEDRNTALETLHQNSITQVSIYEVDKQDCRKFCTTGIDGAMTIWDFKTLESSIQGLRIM
UniProt Q15032: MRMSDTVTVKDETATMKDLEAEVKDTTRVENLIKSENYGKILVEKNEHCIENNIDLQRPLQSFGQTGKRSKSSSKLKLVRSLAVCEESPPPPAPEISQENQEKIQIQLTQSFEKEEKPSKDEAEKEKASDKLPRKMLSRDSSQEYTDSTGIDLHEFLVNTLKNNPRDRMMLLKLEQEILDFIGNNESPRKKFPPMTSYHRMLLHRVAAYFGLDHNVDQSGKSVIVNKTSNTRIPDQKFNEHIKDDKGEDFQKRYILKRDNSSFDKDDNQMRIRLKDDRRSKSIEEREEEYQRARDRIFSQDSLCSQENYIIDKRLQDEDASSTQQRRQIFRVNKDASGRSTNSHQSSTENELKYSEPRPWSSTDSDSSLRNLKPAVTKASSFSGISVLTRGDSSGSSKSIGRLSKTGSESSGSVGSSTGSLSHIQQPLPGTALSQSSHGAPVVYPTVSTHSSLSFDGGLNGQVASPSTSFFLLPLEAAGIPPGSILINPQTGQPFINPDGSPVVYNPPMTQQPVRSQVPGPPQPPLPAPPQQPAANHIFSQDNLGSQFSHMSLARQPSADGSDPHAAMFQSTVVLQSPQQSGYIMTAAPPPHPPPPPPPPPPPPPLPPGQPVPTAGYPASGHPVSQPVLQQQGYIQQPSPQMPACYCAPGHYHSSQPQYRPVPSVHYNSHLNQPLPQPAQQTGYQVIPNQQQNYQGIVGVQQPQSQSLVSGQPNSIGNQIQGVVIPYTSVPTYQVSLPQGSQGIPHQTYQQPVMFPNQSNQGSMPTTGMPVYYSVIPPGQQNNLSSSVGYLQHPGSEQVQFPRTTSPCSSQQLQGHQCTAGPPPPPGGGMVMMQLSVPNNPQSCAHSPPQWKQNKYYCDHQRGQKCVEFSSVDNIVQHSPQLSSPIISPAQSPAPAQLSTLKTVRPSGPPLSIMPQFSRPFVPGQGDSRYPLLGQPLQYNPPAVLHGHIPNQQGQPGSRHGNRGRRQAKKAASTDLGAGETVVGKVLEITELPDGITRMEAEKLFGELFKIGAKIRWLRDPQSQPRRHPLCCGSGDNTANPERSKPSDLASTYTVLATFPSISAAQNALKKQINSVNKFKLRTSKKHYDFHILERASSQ

Substance	binding
Actin-related protein 2/3 complex subunit 1A (from UniProt Q92747 1-370)	binds
R3H domain containing 1 (from UniProt Q15032 1-1099)	binds

Reference: article PMC8582497
